# The supplement of paper PMC4635364
# Structures can show the parent of a compound that is named as a salt. The list shows a part of the results. This data set is noisy: repeats of one test often differ as much as different tests do.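 ReNCell VM, a human fetal ventral-midbrain neural progenitor line, was differentiated without mitogens. Blinded raters scored images stained for doublecortin (early neurons) or tyrosine hydroxylase (dopaminergic neurons) against untreated wells (0 = no change). Scores were averaged across repeats and both raters, and compounds averaging 2 or more were selected as hits for retesting.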
# Tested on: ReNCell VM
# Experiment: dopaminergic neuron differentiation score (TH+ cell fraction vs untreated, manual image score) (score (0 to 3)); higher = more TH+ dopaminergic neuron differentiation
# Conditions: library: Spectrum; 2 uM; 4 weeks; BDNF 10 ng/ml + GDNF 10 ng/ml
row,Compound,dopaminergic neuron differentiation score
1,COc1ccccc1N1CCN(CC(O)COc2cccc3ccccc23)CC1 (configuration not stated),inactive: 0
2,CC1(C)CC2C1CCC1(C)OC2(C)CCC1O (configuration not stated),inactive: 0
3,CCN(CCCCOC(=O)c1ccc(OC)c(OC)c1)C(C)Cc1ccc(OC)cc1 (configuration not stated),inactive: 0
4,CCCCNC(=O)NS(=O)(=O)c1ccc(C)cc1,inactive: 0
5,O=C(O)C(S)C(S)C(=O)O (configuration not stated),inactive: 0
6,CCCCCC(C)N (configuration not stated),inactive: 0
7,CC1(C)CC2C1CC[C@]1(CBr)CCC3C(CC(=O)O)C(=O)O[C@@]32C1 (some centres not stated) [BROMO-3-HYDROXY-4-(SUCCIN-2-YL)-CARYOLANE gamma-LACTONE],inactive: 0
8,NNC(=O)c1ccncc1.Nc1ccc(C(=O)O)c(O)c1,inactive: 0
9,CCC[C@@H]1C[C@@H](C(=O)N[C@@H]([C@H]2O[C@H](SC)[C@H](O)[C@@H](O)[C@H]2O)[C@@H](C)O)N(C)C1,inactive: 0
10,Nc1nc2c(ncn2COCCO)c(=O)[nH]1,inactive: 0
11,COc1cc(C)c2c(=O)cc(-c3ccccc3)oc2c1,inactive: 0
12,CO[C@H]1[C@H](O)[C@@H](O)[C@H](O)[C@H](O)[C@H]1O,inactive: 0
13,CC(C)NCC(O)c1ccc(O)c(O)c1 (configuration not stated),inactive: 0
14,CC(=O)NC[C@H]1CN(c2ccc(N3CCOCC3)c(F)c2)C(=O)O1,inactive: 0
15,Cc1ccc(C(=O)Nc2ccc(S(=O)(=O)O)c3cc(S(=O)(=O)O)cc(S(=O)(=O)O)c23)cc1NC(=O)c1cccc(NC(=O)Nc2cccc(C(=O)Nc3cc(C(=O)Nc4ccc(S(=O)(=O)O)c5cc(S(=O)(=O)O)cc(S(=O)(=O)O)c45)ccc3C)c2)c1,inactive: 0
16,CC(=O)Nc1ccc(CC(=O)O)cc1,inactive: 0
17,OCC(O)C(O)C(O)C(O)C(O)CO (configuration not stated),inactive: 0
18,C#CCCCCCCCCCCCC(O)CC(O)COC(C)=O (configuration not stated),inactive: 0
19,CC(C)(Oc1ccc(CCNC(=O)c2ccc(Cl)cc2)cc1)C(=O)O,inactive: 0
20,Cc1nnc(SCC2=C(C(=O)O)N3C(=O)[C@@H](NC(=O)Cn4cnnn4)[C@H]3SC2)s1,inactive: 0
21,CNCCCN1c2ccccc2CCc2ccccc21,inactive: 0

# 3 entries from above, ordered by formula weight, rising:
row,Compound,dopaminergic neuron differentiation score
6,CCCCCC(C)N (configuration not stated),inactive: 0
17,OCC(O)C(O)C(O)C(O)C(O)CO (configuration not stated),inactive: 0
19,CC(C)(Oc1ccc(CCNC(=O)c2ccc(Cl)cc2)cc1)C(=O)O,inactive: 0

# Same assay, conditions: library: Tocriscreen; 2 uM; 4 weeks; BDNF 10 ng/ml + GDNF 10 ng/ml
row,Compound,dopaminergic neuron differentiation score
1,CCC(=O)OCN1C(=O)C=CC1=O,inactive: 0
2,Cc1c(NC(=O)N2CCOCC2)ccc2c1c1ccccc1n2C(C)C,inactive: 0
3,NS(=O)(=O)c1cccc2c1c([N+](=O)[O-])cc1nc(O)c(O)nc12 [NBQX disodium salt],inactive: 0
4,C[C@@]1(O)[C@H](O)[C@@H](CO)O[C@H]1n1cnc2c(NC3CCCC3)nc(Cl)nc21,inactive: 0
5,O=C1CC2(CCCC2)CC(=O)N1CCNCC1COc2ccccc2O1 (configuration not stated),inactive: 0
6,CCCCCCN(CCCCCC)C(=O)Cc1c(-c2ccc(Cl)cc2)[nH]c2ccc(Cl)cc12,inactive: 0
